Assay results from publication PMC9097636, “FOXO transcription factors differ in their dynamics and intra/intermolecular interactions” (Current Research in Structural Biology, 2022).
No constants are given. Whether binding was seen depends on the method and setting. Some binding calls cover weakened binding; strength is not graded here.

By UniProt entry, the sequences of proteins in these tests, tags left out. Residues count along the entry.
UniProt Q12778, residues 143-270: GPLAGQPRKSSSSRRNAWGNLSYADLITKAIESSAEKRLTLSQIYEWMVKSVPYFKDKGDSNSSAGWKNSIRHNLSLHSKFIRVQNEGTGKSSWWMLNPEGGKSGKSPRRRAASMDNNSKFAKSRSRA

Experiments:
Experiment in all cases: NMR titration; 1H,15N HSQC of 50 uM 15N-labelled FH domain, unlabelled CR3 added in trans (25 uM or 50 uM); 50 mM NaH2PO4/Na2HPO4 pH 6.5, 0.04% NaN3, 5 mM DTT; 25 C; read-out chemical shift perturbations and line broadening; both purified
[1] = target: FOXO3 forkhead (FH) domain, amino acids 141 to 260 (human) (UniProt O43524)
[2] = target: FOXO1 forkhead (FH) domain, amino acids 143 to 270 (human) (UniProt Q12778)
[3] = target: FOXO6 forkhead (FH) domain, amino acids 71 to 191 (human) (UniProt A8MYZ6)

Row | Binder | binding [1] | binding [2] | binding [3]
1 | FOXO3 conserved region 3 (CR3, transactivation domain), amino acids 593 to 646 (domain or fragment, UniProt O43524 593-646) YSTSANLPVMGHEKFPSDLDLDMFNGSLECDMESIIRSELMDADGLDFNFDSLI | binds weakly | binds weakly | binds weakly
2 | FOXO6 conserved region 3 (CR3, transactivation domain), amino acids 418 to 472 (domain or fragment, human, UniProt A8MYZ6 418-472, looked up, human FOXO6, Uniprot A8MYZ6, amino acids 418 to 472, CR3; Unlabelled in the titrations; also called FOXO6^CR3; CR3 of FOXO6; source: E. coli BL21-DE3 Star, lysed in 6 M urea, purified (Ni-NTA, TEV cleavage, second Ni-NTA, SEC)) YAAAAAGPLGAAPDRFPADLDLDMFSGSLECDVESIILNDFMDSDEMDFNFDSAL | binds weakly |  | 
